This note sets out measurements from paper PMC7005284.

By UniProt entry, the sequences of proteins in these tests, tags left out. Where a name states a change or a piece, a line headed by the entry shows the natural chain unless it says otherwise. Residues count along the entry.
UniProt Q60751, residues 31-1373: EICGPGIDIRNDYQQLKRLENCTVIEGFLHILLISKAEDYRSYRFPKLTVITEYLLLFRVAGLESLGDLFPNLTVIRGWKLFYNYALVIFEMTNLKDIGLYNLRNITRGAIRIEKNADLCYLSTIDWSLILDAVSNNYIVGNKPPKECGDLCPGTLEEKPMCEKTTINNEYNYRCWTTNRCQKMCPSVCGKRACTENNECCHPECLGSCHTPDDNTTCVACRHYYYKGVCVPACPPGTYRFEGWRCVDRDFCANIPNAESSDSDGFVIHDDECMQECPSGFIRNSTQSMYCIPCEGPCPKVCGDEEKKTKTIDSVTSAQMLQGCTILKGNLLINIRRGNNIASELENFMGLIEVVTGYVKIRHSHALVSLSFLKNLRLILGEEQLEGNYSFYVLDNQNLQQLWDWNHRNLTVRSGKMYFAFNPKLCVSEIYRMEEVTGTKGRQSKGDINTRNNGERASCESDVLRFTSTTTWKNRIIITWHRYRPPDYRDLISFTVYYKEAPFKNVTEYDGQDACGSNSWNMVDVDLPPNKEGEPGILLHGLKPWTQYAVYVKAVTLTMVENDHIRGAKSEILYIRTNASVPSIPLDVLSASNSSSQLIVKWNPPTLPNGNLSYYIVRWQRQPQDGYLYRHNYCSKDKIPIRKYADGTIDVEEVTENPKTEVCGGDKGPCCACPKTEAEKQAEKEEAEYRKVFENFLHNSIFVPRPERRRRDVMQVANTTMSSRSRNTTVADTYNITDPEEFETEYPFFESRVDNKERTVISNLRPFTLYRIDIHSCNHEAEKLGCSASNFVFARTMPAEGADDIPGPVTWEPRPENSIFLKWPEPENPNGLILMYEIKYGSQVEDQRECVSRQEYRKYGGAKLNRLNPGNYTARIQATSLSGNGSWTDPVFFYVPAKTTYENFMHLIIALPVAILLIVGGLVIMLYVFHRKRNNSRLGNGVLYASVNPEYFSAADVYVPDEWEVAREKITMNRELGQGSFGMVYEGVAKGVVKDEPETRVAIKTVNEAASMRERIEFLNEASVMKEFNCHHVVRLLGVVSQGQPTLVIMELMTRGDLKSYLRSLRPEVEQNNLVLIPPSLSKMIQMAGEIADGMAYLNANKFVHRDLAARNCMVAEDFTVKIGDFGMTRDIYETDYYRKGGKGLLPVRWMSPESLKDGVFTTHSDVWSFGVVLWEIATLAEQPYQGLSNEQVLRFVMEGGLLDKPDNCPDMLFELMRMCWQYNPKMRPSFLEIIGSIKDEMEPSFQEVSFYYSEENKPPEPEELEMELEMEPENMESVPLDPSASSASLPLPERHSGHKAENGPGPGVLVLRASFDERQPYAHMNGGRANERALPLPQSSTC
UniProt P51437: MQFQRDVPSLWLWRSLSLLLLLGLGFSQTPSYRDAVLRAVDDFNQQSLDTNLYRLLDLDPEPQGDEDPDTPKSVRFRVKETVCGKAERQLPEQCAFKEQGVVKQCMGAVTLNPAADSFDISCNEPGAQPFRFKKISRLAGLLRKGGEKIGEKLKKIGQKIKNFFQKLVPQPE

This assay deals with Flag-IGFR1 (insulin-like growth factor 1 receptor) (UniProt Q60751). As to the kind of experiment: co-IP; NRCMs co-transfected with psicoR-HA-CRAMP and psicoRFlag-IGFR1 or psicoRFlag-TLR9; lysed in immunoprecipitation buffer; A/G agarose beads and 1 ug antibody overnight at 4 °C; which partner was precipitated is not told.

No constants are given. Whether binding was seen depends on the method and setting. In cells and extracts the contact can be indirect. Binding calls can cover weak binding; strength is not graded here.

On to “HA-CRAMP (cathelicidin-related antimicrobial peptide) (from UniProt P51437)”, for which the binding entry is “binds”.
